Measurements: the supplement of paper PMC12067093, “Discovery and optimisation of a covalent ligand for TRIM25 and its application to targeted protein ubiquitination” (Chemical Science, 2025)
The list shows a part of the results.

Chains of the proteins cited; added tags and fusions are not shown. Lines headed by an entry give the natural chain unless they say otherwise; changes in a name come on top.
UniProt Q6PL18: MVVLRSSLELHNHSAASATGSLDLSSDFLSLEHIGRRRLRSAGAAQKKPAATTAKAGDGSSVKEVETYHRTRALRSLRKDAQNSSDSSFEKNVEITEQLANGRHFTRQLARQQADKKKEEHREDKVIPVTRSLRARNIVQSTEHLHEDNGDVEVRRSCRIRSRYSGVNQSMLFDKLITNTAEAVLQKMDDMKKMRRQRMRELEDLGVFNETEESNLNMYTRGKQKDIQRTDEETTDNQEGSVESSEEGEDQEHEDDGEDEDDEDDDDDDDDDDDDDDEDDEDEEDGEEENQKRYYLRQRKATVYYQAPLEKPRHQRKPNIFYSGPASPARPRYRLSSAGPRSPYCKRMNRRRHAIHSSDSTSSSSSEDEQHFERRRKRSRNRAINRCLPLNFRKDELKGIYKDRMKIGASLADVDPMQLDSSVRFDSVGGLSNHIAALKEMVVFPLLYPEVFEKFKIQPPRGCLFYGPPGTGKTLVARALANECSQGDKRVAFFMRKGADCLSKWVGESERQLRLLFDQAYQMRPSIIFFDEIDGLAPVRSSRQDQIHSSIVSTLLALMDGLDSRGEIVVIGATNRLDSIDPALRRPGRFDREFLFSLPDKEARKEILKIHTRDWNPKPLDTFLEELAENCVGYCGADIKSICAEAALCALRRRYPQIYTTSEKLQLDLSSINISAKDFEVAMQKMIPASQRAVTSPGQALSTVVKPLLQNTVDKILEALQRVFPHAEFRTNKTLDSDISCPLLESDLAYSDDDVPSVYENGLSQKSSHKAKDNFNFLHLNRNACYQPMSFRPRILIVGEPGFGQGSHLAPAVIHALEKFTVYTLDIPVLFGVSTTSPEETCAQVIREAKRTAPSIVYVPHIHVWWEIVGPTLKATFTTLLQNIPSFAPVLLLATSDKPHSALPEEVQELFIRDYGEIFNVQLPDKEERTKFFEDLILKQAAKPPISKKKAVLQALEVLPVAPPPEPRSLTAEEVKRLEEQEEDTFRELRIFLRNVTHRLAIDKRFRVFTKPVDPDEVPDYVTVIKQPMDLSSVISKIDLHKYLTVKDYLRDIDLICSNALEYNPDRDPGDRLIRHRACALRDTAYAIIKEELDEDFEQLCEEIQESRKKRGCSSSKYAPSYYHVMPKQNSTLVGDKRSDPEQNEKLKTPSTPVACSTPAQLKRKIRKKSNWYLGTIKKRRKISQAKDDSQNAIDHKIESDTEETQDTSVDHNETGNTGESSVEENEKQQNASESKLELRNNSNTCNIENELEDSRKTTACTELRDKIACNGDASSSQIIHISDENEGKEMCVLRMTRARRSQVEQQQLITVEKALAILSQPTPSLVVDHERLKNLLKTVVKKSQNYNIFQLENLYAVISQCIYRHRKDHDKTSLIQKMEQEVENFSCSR
UniProt P46100: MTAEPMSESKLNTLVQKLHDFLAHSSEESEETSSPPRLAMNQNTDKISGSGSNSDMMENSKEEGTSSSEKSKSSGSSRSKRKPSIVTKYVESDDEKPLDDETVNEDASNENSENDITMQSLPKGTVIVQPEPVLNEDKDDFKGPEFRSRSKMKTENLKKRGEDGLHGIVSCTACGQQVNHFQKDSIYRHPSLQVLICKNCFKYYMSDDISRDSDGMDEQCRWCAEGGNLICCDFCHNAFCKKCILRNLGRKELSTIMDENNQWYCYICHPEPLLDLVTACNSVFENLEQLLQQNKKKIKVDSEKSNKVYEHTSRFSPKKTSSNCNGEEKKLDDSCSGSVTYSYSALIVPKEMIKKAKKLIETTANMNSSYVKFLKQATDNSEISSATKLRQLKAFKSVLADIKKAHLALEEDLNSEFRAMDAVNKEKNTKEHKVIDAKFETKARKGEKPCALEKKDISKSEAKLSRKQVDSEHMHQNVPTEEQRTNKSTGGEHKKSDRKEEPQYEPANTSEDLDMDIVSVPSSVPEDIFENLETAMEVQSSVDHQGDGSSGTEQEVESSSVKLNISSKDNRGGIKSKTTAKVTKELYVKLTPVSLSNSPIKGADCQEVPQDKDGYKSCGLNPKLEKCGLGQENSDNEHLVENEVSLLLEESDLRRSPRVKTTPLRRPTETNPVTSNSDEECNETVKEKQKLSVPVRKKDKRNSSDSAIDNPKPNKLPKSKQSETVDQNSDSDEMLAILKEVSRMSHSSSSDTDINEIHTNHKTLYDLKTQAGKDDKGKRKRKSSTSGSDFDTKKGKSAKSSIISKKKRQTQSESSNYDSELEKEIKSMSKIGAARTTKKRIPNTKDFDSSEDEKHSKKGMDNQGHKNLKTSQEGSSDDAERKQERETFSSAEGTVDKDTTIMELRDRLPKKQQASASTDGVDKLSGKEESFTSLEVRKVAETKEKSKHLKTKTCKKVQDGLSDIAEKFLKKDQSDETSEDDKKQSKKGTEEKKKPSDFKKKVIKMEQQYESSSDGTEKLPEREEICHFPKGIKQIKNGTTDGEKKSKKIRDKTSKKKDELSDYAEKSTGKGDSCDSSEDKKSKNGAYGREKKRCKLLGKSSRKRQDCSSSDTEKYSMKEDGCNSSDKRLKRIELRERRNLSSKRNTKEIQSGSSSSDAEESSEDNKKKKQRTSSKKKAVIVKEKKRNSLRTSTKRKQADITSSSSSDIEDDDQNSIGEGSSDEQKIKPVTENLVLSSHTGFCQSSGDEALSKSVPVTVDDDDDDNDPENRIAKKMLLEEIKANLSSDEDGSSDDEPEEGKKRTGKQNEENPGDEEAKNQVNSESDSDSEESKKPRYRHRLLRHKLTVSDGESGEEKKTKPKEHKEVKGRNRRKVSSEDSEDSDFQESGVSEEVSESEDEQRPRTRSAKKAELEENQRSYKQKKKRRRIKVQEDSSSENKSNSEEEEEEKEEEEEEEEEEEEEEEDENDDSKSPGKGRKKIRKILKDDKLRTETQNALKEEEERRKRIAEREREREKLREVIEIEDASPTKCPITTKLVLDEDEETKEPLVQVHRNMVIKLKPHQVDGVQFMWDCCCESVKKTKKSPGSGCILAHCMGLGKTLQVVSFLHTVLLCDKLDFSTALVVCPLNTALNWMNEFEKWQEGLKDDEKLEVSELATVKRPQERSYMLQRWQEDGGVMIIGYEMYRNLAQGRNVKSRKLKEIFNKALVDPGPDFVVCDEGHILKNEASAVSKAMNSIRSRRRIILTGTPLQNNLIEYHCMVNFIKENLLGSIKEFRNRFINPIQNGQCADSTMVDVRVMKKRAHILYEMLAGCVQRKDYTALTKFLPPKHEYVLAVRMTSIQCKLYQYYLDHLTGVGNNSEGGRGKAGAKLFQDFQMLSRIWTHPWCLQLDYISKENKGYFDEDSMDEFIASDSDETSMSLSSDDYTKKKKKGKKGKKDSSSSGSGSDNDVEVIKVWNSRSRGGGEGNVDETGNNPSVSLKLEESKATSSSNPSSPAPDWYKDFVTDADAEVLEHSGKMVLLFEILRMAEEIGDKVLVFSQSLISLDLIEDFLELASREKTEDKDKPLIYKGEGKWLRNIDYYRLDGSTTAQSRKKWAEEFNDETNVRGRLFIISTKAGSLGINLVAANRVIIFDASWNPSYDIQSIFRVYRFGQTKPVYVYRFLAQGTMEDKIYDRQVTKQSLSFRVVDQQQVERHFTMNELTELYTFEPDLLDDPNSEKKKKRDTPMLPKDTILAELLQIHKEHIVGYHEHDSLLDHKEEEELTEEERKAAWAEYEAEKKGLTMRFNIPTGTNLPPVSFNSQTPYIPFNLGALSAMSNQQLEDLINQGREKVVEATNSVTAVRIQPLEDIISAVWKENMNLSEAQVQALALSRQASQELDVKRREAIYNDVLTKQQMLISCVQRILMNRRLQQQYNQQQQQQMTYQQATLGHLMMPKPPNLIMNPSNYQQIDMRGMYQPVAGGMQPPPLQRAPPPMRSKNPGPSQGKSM
UniProt Q8NB49: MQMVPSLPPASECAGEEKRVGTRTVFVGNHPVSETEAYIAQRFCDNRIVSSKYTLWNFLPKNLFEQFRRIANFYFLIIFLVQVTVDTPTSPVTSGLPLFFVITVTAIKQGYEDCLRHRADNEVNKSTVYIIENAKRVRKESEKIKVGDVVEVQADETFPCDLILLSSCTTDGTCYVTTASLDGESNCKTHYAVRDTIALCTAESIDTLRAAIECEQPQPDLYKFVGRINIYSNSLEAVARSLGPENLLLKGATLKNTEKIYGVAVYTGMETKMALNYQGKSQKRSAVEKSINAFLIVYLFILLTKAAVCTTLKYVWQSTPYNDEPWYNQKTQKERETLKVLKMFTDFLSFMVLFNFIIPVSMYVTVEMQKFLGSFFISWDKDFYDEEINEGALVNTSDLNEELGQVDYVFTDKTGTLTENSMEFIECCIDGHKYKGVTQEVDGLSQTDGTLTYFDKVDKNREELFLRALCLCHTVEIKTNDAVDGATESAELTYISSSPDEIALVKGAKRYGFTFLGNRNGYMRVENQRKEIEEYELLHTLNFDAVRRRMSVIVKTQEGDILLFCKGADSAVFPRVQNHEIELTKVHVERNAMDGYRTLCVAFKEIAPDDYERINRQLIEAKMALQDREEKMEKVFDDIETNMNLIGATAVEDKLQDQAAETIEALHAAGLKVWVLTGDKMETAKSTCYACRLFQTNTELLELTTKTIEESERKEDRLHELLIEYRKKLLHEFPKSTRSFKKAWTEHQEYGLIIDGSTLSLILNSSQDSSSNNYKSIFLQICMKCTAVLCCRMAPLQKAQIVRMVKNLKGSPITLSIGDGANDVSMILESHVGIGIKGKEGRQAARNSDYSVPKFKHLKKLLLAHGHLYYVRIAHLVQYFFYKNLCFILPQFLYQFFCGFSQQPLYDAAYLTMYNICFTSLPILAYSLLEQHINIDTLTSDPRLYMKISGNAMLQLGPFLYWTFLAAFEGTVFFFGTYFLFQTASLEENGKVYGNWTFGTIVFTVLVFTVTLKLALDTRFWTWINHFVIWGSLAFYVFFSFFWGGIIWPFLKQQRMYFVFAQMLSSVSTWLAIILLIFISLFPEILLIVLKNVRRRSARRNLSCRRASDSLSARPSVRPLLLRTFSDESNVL
UniProt Q9HD20: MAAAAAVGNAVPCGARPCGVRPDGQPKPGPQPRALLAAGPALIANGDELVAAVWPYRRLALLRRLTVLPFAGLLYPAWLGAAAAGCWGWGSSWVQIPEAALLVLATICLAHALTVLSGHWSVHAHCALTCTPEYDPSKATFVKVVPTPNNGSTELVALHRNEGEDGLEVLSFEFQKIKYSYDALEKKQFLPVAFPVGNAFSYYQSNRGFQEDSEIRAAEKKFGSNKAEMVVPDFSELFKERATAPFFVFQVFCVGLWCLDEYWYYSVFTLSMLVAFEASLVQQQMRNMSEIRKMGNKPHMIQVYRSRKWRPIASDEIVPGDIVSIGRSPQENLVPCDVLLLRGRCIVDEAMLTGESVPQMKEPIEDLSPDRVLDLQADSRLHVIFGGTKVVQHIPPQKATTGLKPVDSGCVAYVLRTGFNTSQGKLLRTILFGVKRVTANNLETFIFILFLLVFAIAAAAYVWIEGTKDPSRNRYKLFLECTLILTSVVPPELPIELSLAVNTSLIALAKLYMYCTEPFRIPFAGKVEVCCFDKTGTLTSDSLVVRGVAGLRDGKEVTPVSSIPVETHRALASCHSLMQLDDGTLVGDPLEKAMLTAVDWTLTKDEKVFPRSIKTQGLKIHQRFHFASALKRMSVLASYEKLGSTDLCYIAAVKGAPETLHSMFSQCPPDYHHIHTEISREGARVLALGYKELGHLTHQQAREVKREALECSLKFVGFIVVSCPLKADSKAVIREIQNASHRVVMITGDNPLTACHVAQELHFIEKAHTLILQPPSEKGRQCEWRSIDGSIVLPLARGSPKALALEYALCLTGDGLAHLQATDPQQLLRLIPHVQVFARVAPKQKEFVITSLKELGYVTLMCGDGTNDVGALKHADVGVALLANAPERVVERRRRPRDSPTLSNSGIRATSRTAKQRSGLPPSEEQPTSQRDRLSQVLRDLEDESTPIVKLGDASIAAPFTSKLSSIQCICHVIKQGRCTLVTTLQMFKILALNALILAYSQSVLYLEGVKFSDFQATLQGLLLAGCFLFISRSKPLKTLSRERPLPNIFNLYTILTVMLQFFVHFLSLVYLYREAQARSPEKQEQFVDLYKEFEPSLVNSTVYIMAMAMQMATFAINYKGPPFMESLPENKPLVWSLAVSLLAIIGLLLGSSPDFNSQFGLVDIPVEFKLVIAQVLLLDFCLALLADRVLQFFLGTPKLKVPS
UniProt Q9H2C2: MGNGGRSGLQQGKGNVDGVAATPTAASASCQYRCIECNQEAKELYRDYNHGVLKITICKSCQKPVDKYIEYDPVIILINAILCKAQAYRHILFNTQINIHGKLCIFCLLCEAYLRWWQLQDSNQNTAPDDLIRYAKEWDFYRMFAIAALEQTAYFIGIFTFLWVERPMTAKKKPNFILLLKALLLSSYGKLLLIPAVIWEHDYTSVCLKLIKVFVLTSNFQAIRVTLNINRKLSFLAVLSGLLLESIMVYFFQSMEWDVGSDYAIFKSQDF
UniProt O00244: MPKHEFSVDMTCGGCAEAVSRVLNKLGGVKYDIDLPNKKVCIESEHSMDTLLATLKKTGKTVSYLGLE

Compound: CC1Cc2ccccc2N1C(=O)C1CCCN(C1)C(=O)CCl (mixture of isomers) [TRIM25 ligand 11 (diastereomer mixture)]
Assay: probe-labelled cysteine peptide fold change vs DMSO (competition) (log2 fold change); higher = less target engagement (more negative = stronger competition)
Conditions: THP-1, incubation time: 4 h
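Also: competitive chemoproteomic profiling in live THP-1 cells with an iodoacetamide desthiobiotin (IA-DTB) probe, comparing probe-labelled peptide intensities in compound-treated cells against DMSO-treated controls.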

Row | Target | probe-labelled cysteine peptide fold change (10 µM) | probe-labelled cysteine peptide fold change (50 µM)
1 | ASCC3_Q8N3C0_1283_WLGAEAVCIINFQHLILPER (UniProt Q8N3C0) | -0.0153 | 0.0434
2 | ATAD2_Q6PL18_785_NACYQPMSFRPR (UniProt Q6PL18) | -0.109 | -0.0934
3 | ATP6V0A2_Q9Y487_323+330_CLIAEVWCPEADLQDLRR (UniProt Q9Y487) | -0.1 | -0.102
4 | ASMTL_O95671_546_VAESCKPGAGLLLVETLLDEEKR (UniProt O95671) | -0.0267 | -0.218
5 | ATG4C_Q96DT6_65_TLPAESGCTIEDHVIAGNVEEFRK (UniProt Q96DT6) | 0.0384 | 0.00844
6 | ATM_Q13315_2092_DWCPELEELHYQAAWR (UniProt Q13315) | 0.0465 | 0.0307
7 | ATP2A3_Q93084_498_SMSVYCTPTRPHPTGQGSK (UniProt Q93084) | 0.137 | -0.133
8 | ATP11B_Q9Y2G3_422_ECSINGMK (UniProt Q9Y2G3) | -0.0547 | -0.122
9 | ATRX_P46100_1575_LKPHQVDGVQFMWDCCCESVKK (UniProt P46100) | -0.22 | -0.111
10 | ATP8B2_P98198_426_CSINGHSYGDVFDVLGHK (UniProt P98198) | 0.322 | 0.326
11 | ATM_Q13315_564_MGIEQNMCEVNR (UniProt Q13315) | -0.2 | -0.34
12 | ATP6V0A1_Q93050_247_ASLYPCPETPQER (UniProt Q93050) | 0.00995 | 0.00784
13 | ATRIP_Q8WXE1_585_FQCVFQVLPK (UniProt Q8WXE1) | 0.0141 | -0.0426
14 | ARSB_P15848_405_IELLHNIDPNFVDSSPCPR (UniProt P15848) | -0.286 | -0.334
15 | ATP11C_Q8NB49_214_AAIECEQPQPDLYK (UniProt Q8NB49) | -0.0354 | -0.0483
16 | ATP13A1_Q9HD20_667_GAPETLHSMFSQCPPDYHHIHTEISR (UniProt Q9HD20) | -0.044 | 0.0515
17 | ATP6V1H_Q9UI12_226_FAWVEADGVNCIMGVLSNK (UniProt Q9UI12) | 0.279 | 0.447
18 | ATP6V1B2_P21281_162_GPVVLAEDFLDIMGQPINPQCR (UniProt P21281) | -0.264 | 0.332
19 | ARRB1_P49407_251_CPVAMEEADDTVAPSSTFCK (UniProt P49407) | 0.123 | 0.213
20 | ASTE1_Q2TB18_640_QNTSCSK (UniProt Q2TB18) | -0.089 | -0.125
21 | ASAP1_Q9ULH1_652_QTALGNTVLHYCSMYSKPECLK (UniProt Q9ULH1) | 0.0362 | 0.157

Row | Target | probe-labelled cysteine peptide fold change (10 µM) | probe-labelled cysteine peptide fold change (50 µM)
22 | ASNSD1_Q9NWL6_378_CEIPSEEFSK (UniProt Q9NWL6) | 0.245 | 0.181
23 | ATG16L1_Q676U5_506_TELLSCSR (UniProt Q676U5) | 0.101 | -0.251
24 | ATP13A1_Q9HD20_711_EALECSLK (UniProt Q9HD20) | 0.114 | 0.226
25 | ASH2L_Q9UBL3_362_YILAEPDPHAPDPEKLELDCWAGKPIPGDLYR (UniProt Q9UBL3) | -0.107 | -0.123
26 | ATP13A1_Q9HD20_971_LSSIQCICHVIK (UniProt Q9HD20) | -0.0776 | 0.0157
27 | ARV1_Q9H2C2_30_GNVDGVAATPTAASASCQYR (UniProt Q9H2C2) | 0.186 | 0.0212
28 | ASPM_Q8IZT6_441_IPECQGSK (UniProt Q8IZT6) | 0.063 | -0.0812
29 | ATIC_P31939_101_VVACNLYPFVK (UniProt P31939) | -0.0132 | 0.0726
30 | ATL2_Q8NHH9_59_KPCPVQIVLAHEDDHNFELDEEALEQILLQEHIR (UniProt Q8NHH9) | 0.102 | -0.12
31 | ATP2A2_P16615_377_MFILDRVEGDTCSLNEFTITGSTYAPIGEVHK (UniProt P16615) | 0.24 | 0.0756
32 | ATRX_P46100-6_537_GGADCQEVPQDK (UniProt P46100) | -0.0702 | -0.104
33 | ATP13A1_Q9HD20_13+18_AAAAAVGNAVPCGARPCGVRPDGQPK (UniProt Q9HD20) | -0.0534 | -0.208
34 | ATOX1_O00244_41_KVCIESEHSMDTLLATLKK (UniProt O00244) | 0.0597 | 0.0181
35 | ASS1_P00966_97_YLLGTSLARPCIAR (UniProt P00966) | 0.00504 | -0.131
36 | ATAD2_Q6PL18_1388_MEQEVENFSCSR (UniProt Q6PL18) | -0.0689 | -0.0859
37 | ATL2_Q8NHH9_293_HIHNCFSNLGCFLLPHPGLK (UniProt Q8NHH9) | -0.118 | -0.0972
38 | ATP6V1C1_P21283_376_IDCNLLEFK (UniProt P21283) | 0.0431 | 0.129
39 | ATRX_P46100_1242_IKPVTENLVLSSHTGFCQSSGDEALSK (UniProt P46100) | 0.11 | -0.37
40 | ATP6V1A_P38606_532_FCPFYK (UniProt P38606) | 0.0234 | 0.145
41 | ASAP2_O43150_354_LNLLTCQVK (UniProt O43150) | -0.017 | 0.321
42 | ATF7IP_Q6VMQ6_1228_ALPLPMACTLTQFVSGSK (UniProt Q6VMQ6) | 0.192 | 0.0855
